From article PMC8989947 come the findings set out here.

These are yes or no findings as the source states them, for the method shown. In cells and extracts the contact can be indirect. Some entries that bind do so weakly or less than the wild type. For part of these data: Tags and fused reporters may be left off the sequences shown.

Assay [1] addresses T1, HA-tagged DCST1 (Dcst1-3xHA transgene) (mouse) (UniProt Q059Y8).
T1 sequence: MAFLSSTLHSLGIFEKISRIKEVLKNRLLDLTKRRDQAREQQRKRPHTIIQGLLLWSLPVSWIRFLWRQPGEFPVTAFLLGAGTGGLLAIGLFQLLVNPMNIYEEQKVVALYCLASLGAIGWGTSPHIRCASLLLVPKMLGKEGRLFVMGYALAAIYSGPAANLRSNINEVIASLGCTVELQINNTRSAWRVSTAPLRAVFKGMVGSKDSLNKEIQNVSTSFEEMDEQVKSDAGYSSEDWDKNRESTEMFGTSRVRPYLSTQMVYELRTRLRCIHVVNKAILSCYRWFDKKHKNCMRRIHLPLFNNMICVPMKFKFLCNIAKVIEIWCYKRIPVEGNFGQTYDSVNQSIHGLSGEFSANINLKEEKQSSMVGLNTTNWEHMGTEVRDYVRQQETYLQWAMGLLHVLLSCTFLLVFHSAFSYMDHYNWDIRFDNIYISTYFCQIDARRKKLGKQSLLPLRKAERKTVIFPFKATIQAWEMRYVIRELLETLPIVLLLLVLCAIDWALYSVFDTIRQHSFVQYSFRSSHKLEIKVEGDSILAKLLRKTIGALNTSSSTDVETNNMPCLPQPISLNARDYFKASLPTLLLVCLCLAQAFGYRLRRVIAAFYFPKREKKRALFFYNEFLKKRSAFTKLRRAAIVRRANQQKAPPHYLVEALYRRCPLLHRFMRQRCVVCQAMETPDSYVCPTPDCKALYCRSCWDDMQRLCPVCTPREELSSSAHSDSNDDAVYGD
Briefly: co-IP; TGC (1 mg) and sperm (95~105 μg) protein extracts of Ctrl, Dcst1;Tg and Dcst2;Tg males in Pierce IP lysis buffer; anti-HA antibody coated Dynabeads Protein G, 1 h at 4 °C; wash 50 mM Tris-HCl (pH7.5), 150 mM NaCl, 0.1% Triton X-100, 10% glycerol; western blot for IZUMO1. Background: Immunoblotting shows a protein as a band on a membrane.

The target in assay [2] is HA-tagged DCST2 (Dcst2-3xHA transgene) (mouse). The assay is described as above.
Assay [3] deals with HA-tagged DCST2 (Dcst2-3xHA, HEK293T) (mouse). The assay can be described thus: co-IP; lysate (200 μg, 1% Triton-X 100 lysis buffer) of HEK293T cells overexpressing Dcst1-3xFLAG and Dcst2-3xHA; anti-HA antibody coated Dynabeads Protein G, 1 h at 4 °C; wash 50 mM Tris-HCl (pH7.5), 150 mM NaCl, 0.1% Triton X-100, 10% glycerol; western blot for FLAG.

B1: IZUMO1 (protein, UniProt Q9D9J7 22-397)
chain: CIKCDQFVTDALKTFENTYLNDHLPHDIHKNVMRMVNHEVSSFGVVTSAEDSYLGAVDENTLEQATWSFLKDLKRITDSDLKGELFIKELLWMLRHQKDIFNNLARQFQKEVLCPNKCGVMSQTLIWCLKCEKQLHICRKSLDCGERHIEVHRSEDLVLDCLLSWHRASKGLTDYSFYRVWENSSETLIAKGKEPYLTKSMVGPEDAGNYRCVLDTINQGHATVIRYDVTVLPPKHSEENQPPNIITQEEHETPVHVTPQTPPGQEPESELYPELHPELYPELIPTVAQNPEKKMKTRLLILLTLGFVVLVASIIISVLHFRKVSAKLKNASDEVKPTASGSKSDQSLSQQMGLKKASQADFNSDYSGDKSEATEN
With B1, the binding result in assay [1] and in assay [2] was “no binding” in each case.

B2: FLAG-tagged DCST1 (Dcst1-3xFLAG) (protein, UniProt Q059Y8 1-732)
chain: MAFLSSTLHSLGIFEKISRIKEVLKNRLLDLTKRRDQAREQQRKRPHTIIQGLLLWSLPVSWIRFLWRQPGEFPVTAFLLGAGTGGLLAIGLFQLLVNPMNIYEEQKVVALYCLASLGAIGWGTSPHIRCASLLLVPKMLGKEGRLFVMGYALAAIYSGPAANLRSNINEVIASLGCTVELQINNTRSAWRVSTAPLRAVFKGMVGSKDSLNKEIQNVSTSFEEMDEQVKSDAGYSSEDWDKNRESTEMFGTSRVRPYLSTQMVYELRTRLRCIHVVNKAILSCYRWFDKKHKNCMRRIHLPLFNNMICVPMKFKFLCNIAKVIEIWCYKRIPVEGNFGQTYDSVNQSIHGLSGEFSANINLKEEKQSSMVGLNTTNWEHMGTEVRDYVRQQETYLQWAMGLLHVLLSCTFLLVFHSAFSYMDHYNWDIRFDNIYISTYFCQIDARRKKLGKQSLLPLRKAERKTVIFPFKATIQAWEMRYVIRELLETLPIVLLLLVLCAIDWALYSVFDTIRQHSFVQYSFRSSHKLEIKVEGDSILAKLLRKTIGALNTSSSTDVETNNMPCLPQPISLNARDYFKASLPTLLLVCLCLAQAFGYRLRRVIAAFYFPKREKKRALFFYNEFLKKRSAFTKLRRAAIVRRANQQKAPPHYLVEALYRRCPLLHRFMRQRCVVCQAMETPDSYVCPTPDCKALYCRSCWDDMQRLCPVCTPREELSSSAHSDSNDDAVYGD
As for B2, the binding result in assay [3] is on record as “binds”.
